Reference: PubChem BioAssay AID1259308 (NCATS, 2017)

Purpose: 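Knock-downs that increase output of a recombinant reporter protein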 (primary screen)
System: human HEK293 embryonic kidney cells stably expressing firefly luciferase (HEK-CMV-Luc2-Hygro)
Reagent: single siRNA against human genes, 0.8 pmol siRNA per well
Timing: 72 h
Measured: 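Reporter luminescence and viable-cell signal on separate replicate plates, given as percent of non-targeting control and median/MAD z-scores, plus per-cell luciferase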
Scale: total luciferase, z-score and total luciferase, % of control: higher = more reporter protein produced
Rule for the call: 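An siRNA counts as active if its total luciferase robust z-score exceeds 3; genes with two or more such siRNAs out of three were retested with fresh siRNAs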
Meaning of the calls: active = raised luciferase; inactive = no rise
This is an unselected part of about 59,000 reagents. In the full data, about 1,510 (2.6%) are marked active. 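Calls use total luciferase alone and ignore viability, so some active siRNAs may act by altering cell number.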 The numbers tell different reagents against one gene apart. Further read-outs or replicates are left out here. Reagent sequences are not shown.

PDE10A (phosphodiesterase 10A) #1
- total luciferase, z-score: 1.7
- total luciferase, % of control: 116
- Call: inactive

PDE10A (phosphodiesterase 10A) #2
- total luciferase, z-score: 0.635
- total luciferase, % of control: 94.5
- Call: inactive

PDE10A (phosphodiesterase 10A) #3
- total luciferase, z-score: -2.41
- total luciferase, % of control: 33.9
- Call: inactive

PPARGC1A (PPARG coactivator 1 alpha) #1
- total luciferase, z-score: 0.36
- total luciferase, % of control: 89.1
- Call: inactive

PPARGC1A (PPARG coactivator 1 alpha) #2
- total luciferase, z-score: 0.19
- total luciferase, % of control: 85.7
- Call: inactive

PPARGC1A (PPARG coactivator 1 alpha) #3
- total luciferase, z-score: -0.502
- total luciferase, % of control: 71.9
- Call: inactive

KGD4 (alpha-ketoglutarate dehydrogenase subunit 4) #1
- total luciferase, z-score: 0.619
- total luciferase, % of control: 94.2
- Call: inactive

KGD4 (alpha-ketoglutarate dehydrogenase subunit 4) #2
- total luciferase, z-score: -1.93
- total luciferase, % of control: 43.4
- Call: inactive

KGD4 (alpha-ketoglutarate dehydrogenase subunit 4) #3
- total luciferase, z-score: -1.33
- total luciferase, % of control: 55.5
- Call: inactive

PKD2L2 #1
- total luciferase, z-score: -1.89
- total luciferase, % of control: 44.2
- Call: inactive

PKD2L2 #2
- total luciferase, z-score: -1.28
- total luciferase, % of control: 56.4
- Call: inactive

PKD2L2 #3
- total luciferase, z-score: -0.325
- total luciferase, % of control: 75.4
- Call: inactive

ZNF652 (zinc finger protein 652) #1
- total luciferase, z-score: -0.273
- total luciferase, % of control: 76.5
- Call: inactive

ZNF652 (zinc finger protein 652) #2
- total luciferase, z-score: -0.271
- total luciferase, % of control: 76.5
- Call: inactive

ZNF652 (zinc finger protein 652) #3
- total luciferase, z-score: 0.161
- total luciferase, % of control: 85.1
- Call: inactive

PRAMEF14 (PRAME family member 14) #1
- total luciferase, z-score: 0.299
- total luciferase, % of control: 87.8
- Call: inactive

PRAMEF14 (PRAME family member 14) #2
- total luciferase, z-score: 0.797
- total luciferase, % of control: 97.7
- Call: inactive

PRAMEF14 (PRAME family member 14) #3
- total luciferase, z-score: 2.4
- total luciferase, % of control: 130
- Call: inactive

SERPINA12 (serpin family A member 12) #1
- total luciferase, z-score: 1.86
- total luciferase, % of control: 119
- Call: inactive

SERPINA12 (serpin family A member 12) #2
- total luciferase, z-score: -0.505
- total luciferase, % of control: 71.8
- Call: inactive

SERPINA12 (serpin family A member 12) #3
- total luciferase, z-score: -0.317
- total luciferase, % of control: 75.6
- Call: inactive

A portion of the results above:
ZNF652 (zinc finger protein 652) #3
- total luciferase, z-score: 0.161
- total luciferase, % of control: 85.1
- Call: inactive

PRAMEF14 (PRAME family member 14) #1
- total luciferase, z-score: 0.299
- total luciferase, % of control: 87.8
- Call: inactive

PRAMEF14 (PRAME family member 14) #2
- total luciferase, z-score: 0.797
- total luciferase, % of control: 97.7
- Call: inactive
